Measured values as given in the supplement of paper PMC12823440, “Inhibitors supercharge kinase turnover through native proteolytic circuits” (Nature, 2025).
Where a name gives a salt, the structure may show the parent alone. The list shows a part of the results. Hit calls seldom repeat between salt and free forms of one compound.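 Kinases, fused to nanoluciferase, were expressed in K562 cells; luminescence was measured every 4 h from 2 to 18 h as percent of control (DMSO = 100%, positive control = 0%). A time point is decreased if signal falls significantly (2 sigma). Hits were called by the authors by a rule that is not shown; the count of time points alone does not decide it.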

Sequences of proteins named here, by UniProt entry; tags and fusion partners are left off. A change or cut given only in a name is not applied to a line headed by its entry.
UniProt P22607, whole entry, looked up: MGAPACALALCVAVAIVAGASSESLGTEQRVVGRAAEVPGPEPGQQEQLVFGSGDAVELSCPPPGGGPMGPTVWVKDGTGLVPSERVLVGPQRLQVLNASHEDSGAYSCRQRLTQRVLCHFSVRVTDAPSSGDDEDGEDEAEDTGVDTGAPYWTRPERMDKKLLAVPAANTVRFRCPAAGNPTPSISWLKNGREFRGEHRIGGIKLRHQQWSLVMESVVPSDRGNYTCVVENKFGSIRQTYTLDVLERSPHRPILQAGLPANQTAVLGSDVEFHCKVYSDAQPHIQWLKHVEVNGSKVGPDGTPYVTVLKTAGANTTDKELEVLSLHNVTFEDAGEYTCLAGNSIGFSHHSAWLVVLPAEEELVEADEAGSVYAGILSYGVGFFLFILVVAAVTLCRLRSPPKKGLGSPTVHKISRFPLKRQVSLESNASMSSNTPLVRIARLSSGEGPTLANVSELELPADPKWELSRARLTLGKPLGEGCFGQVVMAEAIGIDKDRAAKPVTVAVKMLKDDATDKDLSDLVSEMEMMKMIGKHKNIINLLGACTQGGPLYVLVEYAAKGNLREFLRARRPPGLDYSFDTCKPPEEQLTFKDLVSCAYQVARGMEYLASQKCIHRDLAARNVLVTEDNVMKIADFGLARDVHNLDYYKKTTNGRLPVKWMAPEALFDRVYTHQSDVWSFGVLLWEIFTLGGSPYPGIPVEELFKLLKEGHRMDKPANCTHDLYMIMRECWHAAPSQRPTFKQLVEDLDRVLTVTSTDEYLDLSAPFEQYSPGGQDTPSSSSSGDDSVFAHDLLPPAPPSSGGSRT
UniProt P36888, whole entry: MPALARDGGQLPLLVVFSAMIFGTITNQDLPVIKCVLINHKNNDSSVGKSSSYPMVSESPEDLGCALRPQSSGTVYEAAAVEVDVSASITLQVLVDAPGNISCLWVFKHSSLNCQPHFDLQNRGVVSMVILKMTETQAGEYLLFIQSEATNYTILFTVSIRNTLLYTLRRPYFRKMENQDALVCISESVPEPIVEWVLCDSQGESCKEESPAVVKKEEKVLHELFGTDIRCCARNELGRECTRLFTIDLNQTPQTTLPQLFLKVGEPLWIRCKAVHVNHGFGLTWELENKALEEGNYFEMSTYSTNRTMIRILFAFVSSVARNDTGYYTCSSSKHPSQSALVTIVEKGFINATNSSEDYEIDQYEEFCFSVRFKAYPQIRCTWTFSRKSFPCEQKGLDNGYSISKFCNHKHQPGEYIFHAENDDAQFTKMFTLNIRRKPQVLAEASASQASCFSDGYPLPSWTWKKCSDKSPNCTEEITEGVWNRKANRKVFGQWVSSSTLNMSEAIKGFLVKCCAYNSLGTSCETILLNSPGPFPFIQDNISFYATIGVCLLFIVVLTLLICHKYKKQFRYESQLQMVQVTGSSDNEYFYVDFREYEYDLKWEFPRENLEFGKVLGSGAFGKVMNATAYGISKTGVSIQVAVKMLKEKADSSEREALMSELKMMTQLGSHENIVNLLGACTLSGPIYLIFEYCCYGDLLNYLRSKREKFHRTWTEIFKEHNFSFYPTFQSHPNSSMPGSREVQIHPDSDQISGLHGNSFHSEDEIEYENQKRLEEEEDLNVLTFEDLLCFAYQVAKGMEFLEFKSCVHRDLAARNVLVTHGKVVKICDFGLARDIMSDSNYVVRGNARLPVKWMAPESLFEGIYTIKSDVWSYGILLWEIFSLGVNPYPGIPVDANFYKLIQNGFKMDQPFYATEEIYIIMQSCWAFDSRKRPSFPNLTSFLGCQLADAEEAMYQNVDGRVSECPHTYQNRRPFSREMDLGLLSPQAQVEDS
UniProt P14616: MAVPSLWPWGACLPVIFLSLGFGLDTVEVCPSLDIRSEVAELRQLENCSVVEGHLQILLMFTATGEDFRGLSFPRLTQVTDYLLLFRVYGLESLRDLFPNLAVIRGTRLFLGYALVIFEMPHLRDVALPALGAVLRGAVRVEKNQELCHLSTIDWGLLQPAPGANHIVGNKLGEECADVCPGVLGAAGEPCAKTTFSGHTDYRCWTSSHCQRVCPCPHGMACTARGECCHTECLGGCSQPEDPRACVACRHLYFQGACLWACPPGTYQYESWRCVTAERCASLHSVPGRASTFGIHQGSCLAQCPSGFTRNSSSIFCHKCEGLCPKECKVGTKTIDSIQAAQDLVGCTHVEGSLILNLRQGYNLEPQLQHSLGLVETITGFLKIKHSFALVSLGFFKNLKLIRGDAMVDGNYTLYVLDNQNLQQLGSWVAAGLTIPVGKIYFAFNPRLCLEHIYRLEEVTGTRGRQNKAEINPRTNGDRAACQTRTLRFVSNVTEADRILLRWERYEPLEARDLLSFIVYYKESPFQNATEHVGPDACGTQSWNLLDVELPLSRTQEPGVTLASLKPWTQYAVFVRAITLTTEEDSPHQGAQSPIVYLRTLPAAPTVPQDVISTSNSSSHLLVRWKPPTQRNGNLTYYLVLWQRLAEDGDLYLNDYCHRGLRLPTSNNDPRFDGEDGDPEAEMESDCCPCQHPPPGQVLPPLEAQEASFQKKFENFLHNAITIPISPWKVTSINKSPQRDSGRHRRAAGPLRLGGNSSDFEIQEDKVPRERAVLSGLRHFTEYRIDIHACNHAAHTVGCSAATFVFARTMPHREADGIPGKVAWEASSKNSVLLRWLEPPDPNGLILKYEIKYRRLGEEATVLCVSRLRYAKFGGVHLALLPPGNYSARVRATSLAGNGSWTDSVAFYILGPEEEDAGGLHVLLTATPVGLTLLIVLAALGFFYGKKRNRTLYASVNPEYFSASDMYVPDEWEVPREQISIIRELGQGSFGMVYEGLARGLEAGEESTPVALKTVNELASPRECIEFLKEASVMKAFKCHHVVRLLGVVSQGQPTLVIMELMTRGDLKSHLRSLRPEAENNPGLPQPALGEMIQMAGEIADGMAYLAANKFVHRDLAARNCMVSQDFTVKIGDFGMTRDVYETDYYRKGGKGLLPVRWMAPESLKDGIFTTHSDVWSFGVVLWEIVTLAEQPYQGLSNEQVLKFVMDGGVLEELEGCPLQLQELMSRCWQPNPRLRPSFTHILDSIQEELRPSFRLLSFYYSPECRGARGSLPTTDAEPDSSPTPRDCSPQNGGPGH
UniProt Q9Y616: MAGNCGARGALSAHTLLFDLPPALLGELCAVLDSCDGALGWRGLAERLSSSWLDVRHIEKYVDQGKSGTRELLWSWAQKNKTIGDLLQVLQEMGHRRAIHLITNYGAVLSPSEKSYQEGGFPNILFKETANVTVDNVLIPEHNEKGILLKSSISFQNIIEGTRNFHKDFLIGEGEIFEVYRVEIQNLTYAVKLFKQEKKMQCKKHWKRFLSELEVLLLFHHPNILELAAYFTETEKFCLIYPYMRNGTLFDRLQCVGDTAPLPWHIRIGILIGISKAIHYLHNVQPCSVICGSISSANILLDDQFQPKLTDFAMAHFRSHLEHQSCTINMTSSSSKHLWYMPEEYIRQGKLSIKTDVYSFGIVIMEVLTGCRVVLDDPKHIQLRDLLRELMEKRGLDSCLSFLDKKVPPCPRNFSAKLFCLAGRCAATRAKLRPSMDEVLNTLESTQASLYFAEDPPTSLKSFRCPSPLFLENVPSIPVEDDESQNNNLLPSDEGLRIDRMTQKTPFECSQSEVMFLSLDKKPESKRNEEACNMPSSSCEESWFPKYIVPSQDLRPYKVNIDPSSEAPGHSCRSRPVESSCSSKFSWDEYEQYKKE
UniProt P23458: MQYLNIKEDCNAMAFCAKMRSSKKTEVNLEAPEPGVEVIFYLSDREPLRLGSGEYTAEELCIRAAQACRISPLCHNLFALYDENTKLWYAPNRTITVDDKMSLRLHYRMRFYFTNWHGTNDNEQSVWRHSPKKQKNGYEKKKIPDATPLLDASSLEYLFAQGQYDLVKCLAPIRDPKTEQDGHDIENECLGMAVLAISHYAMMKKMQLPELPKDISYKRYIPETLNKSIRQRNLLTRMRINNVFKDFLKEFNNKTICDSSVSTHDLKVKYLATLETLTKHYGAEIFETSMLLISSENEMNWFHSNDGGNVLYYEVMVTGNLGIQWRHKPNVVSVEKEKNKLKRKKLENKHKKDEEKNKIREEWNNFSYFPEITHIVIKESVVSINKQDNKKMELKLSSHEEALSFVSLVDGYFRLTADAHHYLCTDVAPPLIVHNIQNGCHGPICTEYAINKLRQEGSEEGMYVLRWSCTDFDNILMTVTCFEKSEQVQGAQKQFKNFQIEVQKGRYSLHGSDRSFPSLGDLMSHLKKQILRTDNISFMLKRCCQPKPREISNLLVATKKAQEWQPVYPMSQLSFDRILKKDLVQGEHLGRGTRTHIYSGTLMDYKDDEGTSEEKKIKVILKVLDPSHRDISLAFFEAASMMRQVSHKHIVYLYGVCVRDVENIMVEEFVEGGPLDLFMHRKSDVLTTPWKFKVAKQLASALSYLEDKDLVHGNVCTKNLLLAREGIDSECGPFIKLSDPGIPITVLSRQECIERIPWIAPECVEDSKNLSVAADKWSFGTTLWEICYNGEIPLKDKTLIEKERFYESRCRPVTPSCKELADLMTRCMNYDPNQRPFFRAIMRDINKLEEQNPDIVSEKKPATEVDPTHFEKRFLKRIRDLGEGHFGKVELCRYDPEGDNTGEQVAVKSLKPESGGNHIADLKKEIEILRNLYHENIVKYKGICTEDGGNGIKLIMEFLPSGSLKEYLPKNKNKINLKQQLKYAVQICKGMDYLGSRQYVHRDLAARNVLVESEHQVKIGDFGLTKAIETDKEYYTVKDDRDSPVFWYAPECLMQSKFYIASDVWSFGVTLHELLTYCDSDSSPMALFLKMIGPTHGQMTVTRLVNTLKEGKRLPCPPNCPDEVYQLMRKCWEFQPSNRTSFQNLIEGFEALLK
UniProt P06239: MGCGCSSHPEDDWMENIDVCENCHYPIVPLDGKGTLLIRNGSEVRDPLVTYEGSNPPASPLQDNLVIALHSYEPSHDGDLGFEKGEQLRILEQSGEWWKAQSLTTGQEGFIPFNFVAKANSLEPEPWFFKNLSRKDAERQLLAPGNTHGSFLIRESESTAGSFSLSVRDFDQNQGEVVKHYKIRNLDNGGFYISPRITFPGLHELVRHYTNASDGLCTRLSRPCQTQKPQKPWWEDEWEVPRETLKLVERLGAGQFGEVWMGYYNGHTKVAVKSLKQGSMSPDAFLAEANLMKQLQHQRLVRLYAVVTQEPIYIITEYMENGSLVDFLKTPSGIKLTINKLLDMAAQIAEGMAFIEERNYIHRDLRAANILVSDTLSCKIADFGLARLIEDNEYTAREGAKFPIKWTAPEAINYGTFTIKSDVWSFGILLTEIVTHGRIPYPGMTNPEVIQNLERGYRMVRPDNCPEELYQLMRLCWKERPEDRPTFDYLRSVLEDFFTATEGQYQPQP
UniProt P53667: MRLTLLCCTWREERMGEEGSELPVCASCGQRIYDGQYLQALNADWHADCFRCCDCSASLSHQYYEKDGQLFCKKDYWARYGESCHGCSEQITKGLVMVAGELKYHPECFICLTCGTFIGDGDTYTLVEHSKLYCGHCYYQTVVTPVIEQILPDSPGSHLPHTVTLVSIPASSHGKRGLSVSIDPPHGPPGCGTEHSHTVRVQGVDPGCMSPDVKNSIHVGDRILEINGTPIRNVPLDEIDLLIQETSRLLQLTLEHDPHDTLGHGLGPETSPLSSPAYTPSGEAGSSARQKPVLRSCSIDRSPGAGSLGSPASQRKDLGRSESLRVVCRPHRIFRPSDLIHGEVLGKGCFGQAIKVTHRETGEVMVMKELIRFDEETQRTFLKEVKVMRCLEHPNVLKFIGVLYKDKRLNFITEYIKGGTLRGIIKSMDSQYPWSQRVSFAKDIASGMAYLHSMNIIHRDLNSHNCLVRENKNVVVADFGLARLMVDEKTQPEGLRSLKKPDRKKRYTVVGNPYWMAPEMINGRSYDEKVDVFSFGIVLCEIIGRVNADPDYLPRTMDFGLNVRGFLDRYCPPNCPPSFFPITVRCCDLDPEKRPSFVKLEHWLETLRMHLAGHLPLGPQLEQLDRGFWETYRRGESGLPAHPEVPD
UniProt P07948: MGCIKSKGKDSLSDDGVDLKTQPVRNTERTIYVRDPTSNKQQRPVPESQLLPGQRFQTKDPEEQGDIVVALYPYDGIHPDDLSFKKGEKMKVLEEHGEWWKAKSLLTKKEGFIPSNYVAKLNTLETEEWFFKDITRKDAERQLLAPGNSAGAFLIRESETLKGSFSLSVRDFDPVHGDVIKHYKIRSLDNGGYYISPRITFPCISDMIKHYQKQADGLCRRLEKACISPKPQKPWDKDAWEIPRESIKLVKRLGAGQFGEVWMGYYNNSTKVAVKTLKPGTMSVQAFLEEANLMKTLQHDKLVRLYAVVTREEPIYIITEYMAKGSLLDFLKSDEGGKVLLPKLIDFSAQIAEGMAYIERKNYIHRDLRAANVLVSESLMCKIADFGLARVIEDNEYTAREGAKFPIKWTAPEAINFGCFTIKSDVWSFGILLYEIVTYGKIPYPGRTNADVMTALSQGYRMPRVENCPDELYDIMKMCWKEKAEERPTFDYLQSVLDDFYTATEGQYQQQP

Tests used:
Assay in all cases: kinase-Nluc reporter destabilization hit call (1 = scored as downregulated) (binary); higher = compound decreases kinase abundance
Settings in all cases: K562, 2-18 h
ERN1 = ERN1 (UniProt O75460)
FGFR1 = FGFR1 (UniProt P11362)
FGFR2 = FGFR2 (UniProt P21802)
FGFR3 = FGFR3 (UniProt P22607)
FGR = FGR (UniProt P09769)
FLT3 = FLT3 (UniProt P36888)
FYN = FYN (UniProt P06241)
GSK3A = GSK3A (UniProt P49840)
HER2 = HER2 (UniProt P04626)
INSRR = INSRR (UniProt P14616)
IRAK3 = IRAK3 (UniProt Q9Y616)
JAK1 = JAK1 (UniProt P23458)
LCK = LCK (UniProt P06239)
LIMK1 = LIMK1 (UniProt P53667)
LIMK2 = LIMK2 (UniProt P53671)
LMTK2 = LMTK2 (UniProt Q8IWU2)
LYN = LYN (UniProt P07948)
MAP2K1 = MAP2K1 (UniProt Q02750)
MAP2K2 = MAP2K2 (UniProt P36507)
MAP4K2 = MAP4K2 (UniProt Q12851)

COc1ccc2c(c1)C(c1ccc(F)cc1)=C(CN1CCCC1)CO2
kinase-Nluc reporter destabilization hit call (ERN1; 10 µM): inactive: 0 | kinase-Nluc reporter destabilization hit call (FGFR1; 10 µM): inactive: 0 | kinase-Nluc reporter destabilization hit call (FGFR2; 10 µM): inactive: 0 | kinase-Nluc reporter destabilization hit call (FGFR3; 10 µM): inactive: 0 | kinase-Nluc reporter destabilization hit call (FGR; 10 µM): inactive: 0 | kinase-Nluc reporter destabilization hit call (FLT3; 10 µM): inactive: 0 | kinase-Nluc reporter destabilization hit call (FYN; 10 µM): inactive: 0 | kinase-Nluc reporter destabilization hit call (GSK3A; 10 µM): inactive: 0 | kinase-Nluc reporter destabilization hit call (HER2; 10 µM): inactive: 0 | kinase-Nluc reporter destabilization hit call (INSRR; 10 µM): inactive: 0 | kinase-Nluc reporter destabilization hit call (IRAK3; 10 µM): inactive: 0 | kinase-Nluc reporter destabilization hit call (JAK1; 10 µM): inactive: 0 | kinase-Nluc reporter destabilization hit call (LCK; 10 µM): inactive: 0 | kinase-Nluc reporter destabilization hit call (LIMK1; 10 µM): inactive: 0 | kinase-Nluc reporter destabilization hit call (LIMK2; 10 µM): inactive: 0 | kinase-Nluc reporter destabilization hit call (LMTK2; 10 µM): inactive: 0 | kinase-Nluc reporter destabilization hit call (LYN; 10 µM): inactive: 0 | kinase-Nluc reporter destabilization hit call (MAP2K1; 10 µM): inactive: 0 | kinase-Nluc reporter destabilization hit call (MAP2K2; 10 µM): inactive: 0 | kinase-Nluc reporter destabilization hit call (MAP4K2; 10 µM): inactive: 0

Cc1[nH]c(/C=C2\C(=O)Nc3ccc(F)cc32)c(C)c1C(=O)NCCN1CCCC1 [Toceranib (phosphate)]
kinase-Nluc reporter destabilization hit call (ERN1; 2 µM): inactive: 0 | kinase-Nluc reporter destabilization hit call (FGFR1; 2 µM): inactive: 0 | kinase-Nluc reporter destabilization hit call (FGFR2; 2 µM): inactive: 0 | kinase-Nluc reporter destabilization hit call (FGFR3; 2 µM): inactive: 0 | kinase-Nluc reporter destabilization hit call (FGR; 2 µM): inactive: 0 | kinase-Nluc reporter destabilization hit call (FLT3; 2 µM): inactive: 0 | kinase-Nluc reporter destabilization hit call (FYN; 2 µM): inactive: 0 | kinase-Nluc reporter destabilization hit call (GSK3A; 2 µM): inactive: 0 | kinase-Nluc reporter destabilization hit call (HER2; 2 µM): inactive: 0 | kinase-Nluc reporter destabilization hit call (INSRR; 2 µM): inactive: 0 | kinase-Nluc reporter destabilization hit call (IRAK3; 2 µM): inactive: 0 | kinase-Nluc reporter destabilization hit call (JAK1; 2 µM): inactive: 0 | kinase-Nluc reporter destabilization hit call (LCK; 2 µM): inactive: 0 | kinase-Nluc reporter destabilization hit call (LIMK1; 2 µM): inactive: 0 | kinase-Nluc reporter destabilization hit call (LIMK2; 2 µM): inactive: 0 | kinase-Nluc reporter destabilization hit call (LMTK2; 2 µM): inactive: 0 | kinase-Nluc reporter destabilization hit call (LYN; 2 µM): inactive: 0 | kinase-Nluc reporter destabilization hit call (MAP2K1; 2 µM): inactive: 0 | kinase-Nluc reporter destabilization hit call (MAP2K2; 2 µM): inactive: 0 | kinase-Nluc reporter destabilization hit call (MAP4K2; 2 µM): inactive: 0

C=CC(=O)Nc1cc(Nc2nccc(-c3cn(C)c4ccccc34)n2)c(OC)cc1N(C)CCN(C)C [Osimertinib mesylate]
kinase-Nluc reporter destabilization hit call (ERN1; 2.5 µM): inactive: 0 | kinase-Nluc reporter destabilization hit call (FGFR1; 2.5 µM): inactive: 0 | kinase-Nluc reporter destabilization hit call (FGFR2; 2.5 µM): inactive: 0 | kinase-Nluc reporter destabilization hit call (FGFR3; 2.5 µM): inactive: 0 | kinase-Nluc reporter destabilization hit call (FGR; 2.5 µM): inactive: 0 | kinase-Nluc reporter destabilization hit call (FLT3; 2.5 µM): inactive: 0 | kinase-Nluc reporter destabilization hit call (FYN; 2.5 µM): inactive: 0 | kinase-Nluc reporter destabilization hit call (GSK3A; 2.5 µM): inactive: 0 | kinase-Nluc reporter destabilization hit call (HER2; 2.5 µM): active: 1 | kinase-Nluc reporter destabilization hit call (INSRR; 2.5 µM): inactive: 0 | kinase-Nluc reporter destabilization hit call (IRAK3; 2.5 µM): inactive: 0 | kinase-Nluc reporter destabilization hit call (JAK1; 2.5 µM): inactive: 0 | kinase-Nluc reporter destabilization hit call (LCK; 2.5 µM): inactive: 0 | kinase-Nluc reporter destabilization hit call (LIMK1; 2.5 µM): inactive: 0 | kinase-Nluc reporter destabilization hit call (LIMK2; 2.5 µM): inactive: 0 | kinase-Nluc reporter destabilization hit call (LMTK2; 2.5 µM): inactive: 0 | kinase-Nluc reporter destabilization hit call (LYN; 2.5 µM): inactive: 0 | kinase-Nluc reporter destabilization hit call (MAP2K1; 2.5 µM): inactive: 0 | kinase-Nluc reporter destabilization hit call (MAP2K2; 2.5 µM): inactive: 0 | kinase-Nluc reporter destabilization hit call (MAP4K2; 2.5 µM): inactive: 0

c1cc(-c2cnn3cc(-c4ccc(OCCN5CCCCC5)cc4)cnc23)ccn1 [Dorsomorphin]
kinase-Nluc reporter destabilization hit call (ERN1; 2.5 µM): inactive: 0 | kinase-Nluc reporter destabilization hit call (FGFR1; 2.5 µM): inactive: 0 | kinase-Nluc reporter destabilization hit call (FGFR2; 2.5 µM): inactive: 0 | kinase-Nluc reporter destabilization hit call (FGFR3; 2.5 µM): inactive: 0 | kinase-Nluc reporter destabilization hit call (FGR; 2.5 µM): inactive: 0 | kinase-Nluc reporter destabilization hit call (FLT3; 2.5 µM): inactive: 0 | kinase-Nluc reporter destabilization hit call (FYN; 2.5 µM): inactive: 0 | kinase-Nluc reporter destabilization hit call (GSK3A; 2.5 µM): inactive: 0 | kinase-Nluc reporter destabilization hit call (HER2; 2.5 µM): inactive: 0 | kinase-Nluc reporter destabilization hit call (INSRR; 2.5 µM): inactive: 0 | kinase-Nluc reporter destabilization hit call (IRAK3; 2.5 µM): inactive: 0 | kinase-Nluc reporter destabilization hit call (JAK1; 2.5 µM): inactive: 0 | kinase-Nluc reporter destabilization hit call (LCK; 2.5 µM): inactive: 0 | kinase-Nluc reporter destabilization hit call (LIMK1; 2.5 µM): inactive: 0 | kinase-Nluc reporter destabilization hit call (LIMK2; 2.5 µM): inactive: 0 | kinase-Nluc reporter destabilization hit call (LMTK2; 2.5 µM): inactive: 0 | kinase-Nluc reporter destabilization hit call (LYN; 2.5 µM): inactive: 0 | kinase-Nluc reporter destabilization hit call (MAP2K1; 2.5 µM): inactive: 0 | kinase-Nluc reporter destabilization hit call (MAP2K2; 2.5 µM): inactive: 0 | kinase-Nluc reporter destabilization hit call (MAP4K2; 2.5 µM): inactive: 0
